Measurements from article PMC4783376.
Results are given in words; binding and its absence hold for the method and conditions named. Some results given as binding are weak or reduced against the parent protein; the word gives no strength.

Key:
[1] = molecular target: T1, RHS10 N-terminal bait (amino acids 1–236), extracellular domain (Arabidopsis thaliana) (UniProt Q9CAL8); assay: two-hybrid; targeted (repeated) yeast two-hybrid assay; RHS10 kinase domain or N-terminal bait in pGBKT7; 0–70 mM 3-AT to suppress background HIS3 activity
T1 sequence: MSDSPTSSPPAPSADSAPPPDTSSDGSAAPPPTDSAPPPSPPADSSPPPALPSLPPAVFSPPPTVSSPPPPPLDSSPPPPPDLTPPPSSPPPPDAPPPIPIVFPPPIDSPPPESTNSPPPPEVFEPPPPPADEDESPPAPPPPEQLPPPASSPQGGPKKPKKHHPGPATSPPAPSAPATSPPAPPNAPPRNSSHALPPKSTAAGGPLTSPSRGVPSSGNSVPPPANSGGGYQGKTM

[2] = molecular target: T2, RHS10 kinase domain (amino acids 256–710), yeast two-hybrid bait (Arabidopsis thaliana) (UniProt Q9CAL8); assay: as above
T2 sequence: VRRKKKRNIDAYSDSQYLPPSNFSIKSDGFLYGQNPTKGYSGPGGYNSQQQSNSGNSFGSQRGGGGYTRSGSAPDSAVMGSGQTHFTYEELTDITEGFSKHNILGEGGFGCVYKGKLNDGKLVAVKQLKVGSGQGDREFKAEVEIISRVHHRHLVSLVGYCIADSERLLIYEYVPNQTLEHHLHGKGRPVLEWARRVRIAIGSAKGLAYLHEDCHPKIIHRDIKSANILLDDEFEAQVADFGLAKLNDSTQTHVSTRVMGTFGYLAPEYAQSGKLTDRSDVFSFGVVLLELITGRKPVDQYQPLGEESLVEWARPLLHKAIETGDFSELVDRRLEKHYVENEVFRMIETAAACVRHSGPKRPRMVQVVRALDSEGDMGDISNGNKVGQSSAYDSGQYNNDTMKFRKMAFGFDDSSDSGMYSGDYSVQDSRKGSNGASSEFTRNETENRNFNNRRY

binding [1]: no binding
binding [2]: binds
B1: RIBONUCLEASE 2 (RNS2), whole sequence, yeast two-hybrid prey (enzyme, UniProt P42814 1-259)
chain: MASRLCLLLLVACIAGAFAGDVIELNRSQREFDYFALSLQWPGTYCRGTRHCCSKNACCRGSDAPTQFTIHGLWPDYNDGSWPSCCYRSDFKEKEISTLMDGLEKYWPSLSCGSPSSCNGGKGSFWGHEWEKHGTCSSPVFHDEYNYFLTTLNLYLKHNVTDVLYQAGYVASNSEKYPLGGIVTAIQNAFHITPEVVCKRDAIDEIRICFYKDFKPRDCVGSQDLTSRKSCPKYVSLPEYTPLDGEAMVLKMPTEREAL
